Results as given in the supplement of paper PMC10849652.
The other results are listed elsewhere or left out.

The chains behind the UniProt entries cited, without tags or fusion partners. Where a name states a change or a piece, a line headed by the entry shows the natural chain unless it says otherwise.
UniProt Q02446, whole entry, looked up: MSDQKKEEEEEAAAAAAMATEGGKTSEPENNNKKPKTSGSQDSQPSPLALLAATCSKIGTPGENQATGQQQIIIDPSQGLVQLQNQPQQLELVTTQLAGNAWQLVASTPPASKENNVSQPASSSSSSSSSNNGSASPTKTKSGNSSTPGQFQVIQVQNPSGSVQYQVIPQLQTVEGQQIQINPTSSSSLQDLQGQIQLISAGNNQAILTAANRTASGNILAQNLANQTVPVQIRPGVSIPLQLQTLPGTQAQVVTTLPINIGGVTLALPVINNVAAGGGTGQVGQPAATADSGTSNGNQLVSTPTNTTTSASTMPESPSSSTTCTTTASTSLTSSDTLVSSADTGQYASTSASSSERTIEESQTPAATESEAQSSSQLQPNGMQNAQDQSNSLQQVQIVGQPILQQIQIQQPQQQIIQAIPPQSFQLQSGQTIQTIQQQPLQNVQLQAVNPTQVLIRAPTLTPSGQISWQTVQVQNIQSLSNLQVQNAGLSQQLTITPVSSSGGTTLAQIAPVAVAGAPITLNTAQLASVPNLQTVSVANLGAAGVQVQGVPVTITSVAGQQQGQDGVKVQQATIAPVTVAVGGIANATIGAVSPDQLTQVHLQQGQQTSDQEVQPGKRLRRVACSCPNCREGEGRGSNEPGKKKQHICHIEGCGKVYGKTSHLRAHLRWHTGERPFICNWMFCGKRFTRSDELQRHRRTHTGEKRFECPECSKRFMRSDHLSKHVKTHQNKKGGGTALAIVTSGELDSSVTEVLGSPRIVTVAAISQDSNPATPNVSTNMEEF
UniProt Q96R06: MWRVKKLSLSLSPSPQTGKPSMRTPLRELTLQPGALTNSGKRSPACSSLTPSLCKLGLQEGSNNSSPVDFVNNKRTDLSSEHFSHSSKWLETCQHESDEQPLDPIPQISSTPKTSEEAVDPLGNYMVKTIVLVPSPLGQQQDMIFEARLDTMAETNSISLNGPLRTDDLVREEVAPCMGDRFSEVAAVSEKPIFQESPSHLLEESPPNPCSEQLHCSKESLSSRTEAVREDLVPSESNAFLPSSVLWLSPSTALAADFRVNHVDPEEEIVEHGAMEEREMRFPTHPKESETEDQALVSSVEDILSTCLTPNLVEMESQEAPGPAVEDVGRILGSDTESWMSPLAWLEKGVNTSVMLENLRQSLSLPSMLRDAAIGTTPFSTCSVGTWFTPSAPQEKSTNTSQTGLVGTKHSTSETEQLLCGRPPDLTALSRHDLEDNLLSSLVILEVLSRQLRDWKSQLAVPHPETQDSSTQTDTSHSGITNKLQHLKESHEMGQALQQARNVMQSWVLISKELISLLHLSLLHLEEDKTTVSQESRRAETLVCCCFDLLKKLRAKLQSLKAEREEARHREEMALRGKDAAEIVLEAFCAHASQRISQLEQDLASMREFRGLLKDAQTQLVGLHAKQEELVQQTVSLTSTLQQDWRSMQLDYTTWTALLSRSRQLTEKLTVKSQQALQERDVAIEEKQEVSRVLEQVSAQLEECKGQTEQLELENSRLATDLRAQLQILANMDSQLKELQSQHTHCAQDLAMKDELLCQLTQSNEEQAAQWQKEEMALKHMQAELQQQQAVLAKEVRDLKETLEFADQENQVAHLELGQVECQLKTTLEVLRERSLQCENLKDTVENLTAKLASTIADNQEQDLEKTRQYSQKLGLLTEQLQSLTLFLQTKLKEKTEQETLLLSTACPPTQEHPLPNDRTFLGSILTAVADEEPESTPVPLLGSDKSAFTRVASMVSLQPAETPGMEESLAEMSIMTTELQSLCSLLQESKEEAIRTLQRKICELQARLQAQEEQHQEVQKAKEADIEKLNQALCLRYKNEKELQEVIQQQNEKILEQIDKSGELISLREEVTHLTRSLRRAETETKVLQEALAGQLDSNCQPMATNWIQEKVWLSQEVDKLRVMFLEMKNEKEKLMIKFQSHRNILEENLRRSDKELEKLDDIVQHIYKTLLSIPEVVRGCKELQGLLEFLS
UniProt O95347, whole entry, looked up: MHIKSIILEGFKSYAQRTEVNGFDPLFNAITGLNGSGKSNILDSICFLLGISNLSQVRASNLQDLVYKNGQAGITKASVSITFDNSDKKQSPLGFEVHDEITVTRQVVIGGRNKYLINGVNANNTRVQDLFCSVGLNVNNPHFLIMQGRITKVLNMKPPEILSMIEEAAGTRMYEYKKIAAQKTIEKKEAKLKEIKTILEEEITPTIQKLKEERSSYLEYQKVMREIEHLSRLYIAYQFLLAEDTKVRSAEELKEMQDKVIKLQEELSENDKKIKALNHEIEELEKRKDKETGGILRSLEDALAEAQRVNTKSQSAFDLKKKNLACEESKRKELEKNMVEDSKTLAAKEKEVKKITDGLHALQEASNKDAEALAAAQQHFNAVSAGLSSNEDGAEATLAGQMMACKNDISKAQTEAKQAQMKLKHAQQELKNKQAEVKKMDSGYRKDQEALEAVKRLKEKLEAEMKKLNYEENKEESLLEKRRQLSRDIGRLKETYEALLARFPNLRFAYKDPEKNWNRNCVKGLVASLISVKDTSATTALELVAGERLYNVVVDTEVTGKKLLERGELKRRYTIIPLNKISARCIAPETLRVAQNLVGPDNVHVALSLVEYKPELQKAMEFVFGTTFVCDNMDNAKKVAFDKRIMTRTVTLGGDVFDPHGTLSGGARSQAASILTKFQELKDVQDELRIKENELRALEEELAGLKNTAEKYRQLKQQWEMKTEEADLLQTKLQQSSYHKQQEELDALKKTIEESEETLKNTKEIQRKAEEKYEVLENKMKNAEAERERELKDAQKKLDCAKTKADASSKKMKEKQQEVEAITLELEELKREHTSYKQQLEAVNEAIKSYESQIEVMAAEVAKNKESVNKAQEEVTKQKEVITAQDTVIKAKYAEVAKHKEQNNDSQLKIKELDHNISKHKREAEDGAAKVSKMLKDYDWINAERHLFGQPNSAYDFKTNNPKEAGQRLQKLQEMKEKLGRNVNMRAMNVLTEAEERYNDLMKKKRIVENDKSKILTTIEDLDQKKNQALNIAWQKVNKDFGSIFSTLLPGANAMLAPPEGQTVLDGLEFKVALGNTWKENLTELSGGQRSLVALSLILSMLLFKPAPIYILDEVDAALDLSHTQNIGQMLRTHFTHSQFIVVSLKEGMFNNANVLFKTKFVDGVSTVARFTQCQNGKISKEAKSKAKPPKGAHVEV
UniProt Q9NTJ3, whole entry, looked up: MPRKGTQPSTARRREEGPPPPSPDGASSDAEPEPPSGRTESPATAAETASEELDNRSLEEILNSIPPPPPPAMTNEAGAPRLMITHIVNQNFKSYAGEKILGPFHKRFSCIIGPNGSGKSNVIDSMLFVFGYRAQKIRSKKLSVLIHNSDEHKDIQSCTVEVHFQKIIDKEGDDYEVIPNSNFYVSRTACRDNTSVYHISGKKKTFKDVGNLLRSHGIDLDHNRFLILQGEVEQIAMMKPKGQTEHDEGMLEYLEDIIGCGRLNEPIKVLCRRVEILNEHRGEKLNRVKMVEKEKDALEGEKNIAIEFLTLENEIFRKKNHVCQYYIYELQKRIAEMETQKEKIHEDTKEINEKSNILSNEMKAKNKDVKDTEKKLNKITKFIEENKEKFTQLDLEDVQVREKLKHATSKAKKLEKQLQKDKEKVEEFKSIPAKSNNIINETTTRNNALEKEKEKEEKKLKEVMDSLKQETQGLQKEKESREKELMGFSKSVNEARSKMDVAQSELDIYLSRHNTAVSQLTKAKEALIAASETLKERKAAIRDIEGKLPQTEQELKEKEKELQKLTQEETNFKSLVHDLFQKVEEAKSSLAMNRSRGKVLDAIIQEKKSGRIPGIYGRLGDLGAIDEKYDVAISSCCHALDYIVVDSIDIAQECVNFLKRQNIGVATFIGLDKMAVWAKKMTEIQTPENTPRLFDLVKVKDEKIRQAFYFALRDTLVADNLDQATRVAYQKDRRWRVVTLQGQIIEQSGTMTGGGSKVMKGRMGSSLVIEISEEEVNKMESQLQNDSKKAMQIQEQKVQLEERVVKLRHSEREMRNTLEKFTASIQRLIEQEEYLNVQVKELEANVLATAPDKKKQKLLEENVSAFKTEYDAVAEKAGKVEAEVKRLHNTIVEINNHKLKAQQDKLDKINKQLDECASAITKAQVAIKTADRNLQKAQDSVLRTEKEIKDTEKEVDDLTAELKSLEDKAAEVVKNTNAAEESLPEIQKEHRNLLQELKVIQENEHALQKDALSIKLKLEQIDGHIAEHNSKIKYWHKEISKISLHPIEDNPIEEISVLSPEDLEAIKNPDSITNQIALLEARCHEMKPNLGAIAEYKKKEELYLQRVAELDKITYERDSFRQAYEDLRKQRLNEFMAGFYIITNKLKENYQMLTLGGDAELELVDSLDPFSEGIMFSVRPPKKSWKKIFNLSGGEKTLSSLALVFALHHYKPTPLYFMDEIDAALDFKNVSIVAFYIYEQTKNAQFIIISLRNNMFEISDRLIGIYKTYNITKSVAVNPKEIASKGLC
UniProt Q9NRG4: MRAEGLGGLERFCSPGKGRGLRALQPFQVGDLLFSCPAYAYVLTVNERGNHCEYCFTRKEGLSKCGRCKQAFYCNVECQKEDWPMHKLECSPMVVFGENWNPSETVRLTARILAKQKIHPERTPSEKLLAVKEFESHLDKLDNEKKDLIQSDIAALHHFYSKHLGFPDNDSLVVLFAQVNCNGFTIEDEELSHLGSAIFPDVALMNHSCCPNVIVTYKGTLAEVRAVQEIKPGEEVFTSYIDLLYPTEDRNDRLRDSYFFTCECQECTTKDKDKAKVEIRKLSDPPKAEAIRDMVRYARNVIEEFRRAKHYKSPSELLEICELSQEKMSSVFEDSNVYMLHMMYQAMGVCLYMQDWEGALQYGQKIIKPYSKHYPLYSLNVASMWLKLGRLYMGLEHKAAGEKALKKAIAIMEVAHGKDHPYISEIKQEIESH
UniProt P08579, whole entry, looked up: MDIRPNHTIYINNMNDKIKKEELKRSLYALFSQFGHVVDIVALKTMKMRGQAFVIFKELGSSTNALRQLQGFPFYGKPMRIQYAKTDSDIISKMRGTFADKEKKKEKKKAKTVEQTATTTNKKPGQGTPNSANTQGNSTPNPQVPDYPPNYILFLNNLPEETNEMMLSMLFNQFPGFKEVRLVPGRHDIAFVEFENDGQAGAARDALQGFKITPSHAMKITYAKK
UniProt O14508, whole entry, looked up: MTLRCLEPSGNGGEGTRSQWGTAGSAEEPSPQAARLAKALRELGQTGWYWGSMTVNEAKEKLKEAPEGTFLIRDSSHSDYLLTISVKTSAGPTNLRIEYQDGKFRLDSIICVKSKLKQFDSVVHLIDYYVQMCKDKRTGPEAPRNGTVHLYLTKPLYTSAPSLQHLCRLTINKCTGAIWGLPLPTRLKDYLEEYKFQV
UniProt P0DJ93: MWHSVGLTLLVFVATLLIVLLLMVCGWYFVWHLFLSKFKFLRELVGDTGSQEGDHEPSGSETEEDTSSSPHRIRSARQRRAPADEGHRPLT
UniProt Q6GMV2: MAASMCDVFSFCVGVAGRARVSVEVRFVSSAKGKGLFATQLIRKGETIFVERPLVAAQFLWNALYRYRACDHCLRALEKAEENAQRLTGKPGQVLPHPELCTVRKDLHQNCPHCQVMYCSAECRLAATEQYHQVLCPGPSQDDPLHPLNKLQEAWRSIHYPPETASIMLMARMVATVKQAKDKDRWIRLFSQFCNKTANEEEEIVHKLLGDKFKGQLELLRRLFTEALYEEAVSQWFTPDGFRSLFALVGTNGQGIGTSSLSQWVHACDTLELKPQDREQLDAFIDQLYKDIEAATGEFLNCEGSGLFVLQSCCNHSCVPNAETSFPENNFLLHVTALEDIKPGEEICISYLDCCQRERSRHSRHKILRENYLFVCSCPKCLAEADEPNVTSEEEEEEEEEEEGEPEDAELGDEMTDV
UniProt P52788: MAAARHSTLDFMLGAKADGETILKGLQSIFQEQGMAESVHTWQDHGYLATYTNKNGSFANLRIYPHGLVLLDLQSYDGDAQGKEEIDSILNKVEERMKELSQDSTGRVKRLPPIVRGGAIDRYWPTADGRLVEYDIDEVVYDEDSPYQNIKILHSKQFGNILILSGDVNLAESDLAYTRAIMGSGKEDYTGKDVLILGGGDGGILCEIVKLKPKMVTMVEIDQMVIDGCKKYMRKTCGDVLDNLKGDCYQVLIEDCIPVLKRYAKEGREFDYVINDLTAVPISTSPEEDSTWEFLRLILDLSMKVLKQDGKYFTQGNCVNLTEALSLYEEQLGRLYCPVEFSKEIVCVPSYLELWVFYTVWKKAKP

Legend:
Experiment in all cases: log2 fold change, soluble protein after heating vs DMSO (PISA); higher = thermal stabilisation; K562 lysate, 10 uM; active = over 0.2 and 3.5 SD of the protein, either way, in both replicates (recomputed)
erlotinib = compound: C#Cc1cccc(Nc2ncnc3cc(OCCOC)c(OCCOC)cc23)c1 [erlotinib]
Procedure, shortened: (§1)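 K562 pellets were dounce-homogenised in PBS pH 7.4 containing 1 mM MgCl2, and the crude extract, at 1 mg/mL protein, was exposed to 10 μM compound for 30 min. Aliquots were heated for 3 min across 48°C-58°C, pooled, brought to 0.5% NP-40 at 4°C and spun at 21,000xg for 90 min, with the supernatant taken as soluble protein. TMTpro 16plex LC-MS/MS with equalised channel sums quantified that protein. Values are log-two fold changes in thermal stability relative to solvent controls, taken from duplicates.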

[1] = compound: C1=CC(=CC=C1C2=NC3=C(N2)C=C(C=C3)C(=O)N)OC4=CC=C(C=C4)Cl
Procedure, shortened: as §1

[2] = compound: C1=CC2=NC=CN=C2C=C1/C=C/3\C(=O)NC(=O)S3
Procedure, shortened: as §1

[3] = compound: C1=CC=C(C=C1)C2=NC(=C(N2)C3=CC=NC=C3)C4=CC(=C(C=C4)Cl)O
Procedure, shortened: as §1

[4] = compound: C1CCN(C1)C(=O)NC2=CC=CC(=C2)NC3=NC=C(C(=N3)NCCC4=CN=CN4)Br
Procedure, shortened: as §1

[5] = compound: C1CN(CCC1(CC2=CC=C(C=C2)Cl)N)C3=NC=NC4=C3C=CN4
Procedure, shortened: as §1

IRAK-1-4 Inhibitor I = compound: C1COCCN1CCN2C3=CC=CC=C3N=C2NC(=O)C4=CC(=CC=C4)[N+](=O)[O-] [IRAK-1-4 Inhibitor I]
Procedure, shortened: as §1

[6] = compound: C/C(=N\NC(=O)C1=CC(=CC=C1)S(=O)(=O)N2CCOCC2)/C3=C(C=CC(=C3)Cl)O
Procedure, shortened: as §1

[7] = compound: C1=CC2=C(C=CC(=C2)/C=C\3/C(=O)NC(=NCC4=CC=CS4)S3)N=C1
Procedure, shortened: as §1

[8] = compound: C1=CC=C2C(=C1)C3=NNC4=CC=CC(=C43)C2=O
Procedure, shortened: as §1

Measured: log2 fold change

SOHLH2 isoform 3 (UniProt Q9NX45)
inactive: erlotinib -0.009 | [1] -0.057 | [2] -0.062 | [3] 0.026 | [4] 0.031 | [5] -0.07 | IRAK-1-4 Inhibitor I 0.037

SP4 (UniProt Q02446)
inactive: erlotinib 0 | [6] -0.021 | [1] -0.186 | [7] 0.218 | [2] 0.021 | [3] -0.094 | [8] -0.332 | [4] -0.046 | [5] -0.02 | IRAK-1-4 Inhibitor I 0.023

SMC6 (UniProt Q96SB8)
inactive: erlotinib 0.02 | [6] 0.038 | [1] -0.03 | [7] -0.002 | [2] -0.009 | [3] 0.019 | [8] -0.055 | [4] -0.031 | [5] 0.03 | IRAK-1-4 Inhibitor I 0.01

SPAG5 (UniProt Q96R06)
inactive: erlotinib 0.013 | [6] 0.012 | [1] -0.054 | [7] 0.003 | [2] -0.008 | [3] 0.014 | [8] 0.018 | [4] -0.009 | [5] -0.011 | IRAK-1-4 Inhibitor I 0

SMC2 (UniProt O95347)
inactive: erlotinib -0.001 | [6] -0.011 | [1] -0.011 | [7] 0.001 | [2] 0.012 | [3] 0.013 | [8] -0.036 | [4] 0.003 | [5] -0.008 | IRAK-1-4 Inhibitor I -0.019

SMC4 (UniProt Q9NTJ3)
inactive: erlotinib -0.006 | [6] -0.018 | [1] -0.007 | [7] 0 | [2] -0.026 | [3] 0 | [8] -0.046 | [4] -0.015 | [5] -0.014 | IRAK-1-4 Inhibitor I -0.009

SNRPD2 (UniProt K7EJB5)
inactive: erlotinib -0.076 | [6] 0 | [1] -0.036 | [7] -0.106 | [3] -0.12 | [8] 0.055 | [4] 0.088 | [5] 0.037 | IRAK-1-4 Inhibitor I -0.03

SORBS3 (UniProt O60504)
inactive: erlotinib -0.01 | [6] 0.028 | [1] 0.021 | [7] 0.018 | [2] -0.054 | [3] -0.092 | [8] 0.057 | [4] 0.09 | [5] 0.129 | IRAK-1-4 Inhibitor I 0.088

SMC3 (UniProt Q9UQE7)
inactive: erlotinib -0.01 | [6] 0.018 | [1] -0.004 | [7] 0.018 | [2] -0.013 | [3] 0.002 | [8] 0.023 | [4] -0.007 | [5] -0.016 | IRAK-1-4 Inhibitor I -0.009

SMYD2 (UniProt Q9NRG4)
inactive: erlotinib 0.021 | [6] 0.033 | [1] -0.015 | [7] 0.036 | [2] -0.012 | [3] -0.044 | [8] -0.029 | [4] 0.013 | [5] 0.022 | IRAK-1-4 Inhibitor I -0.005

SNRPB2 (UniProt P08579)
inactive: erlotinib 0.004 | [6] 0.06 | [1] -0.009 | [7] 0.029 | [2] -0.027 | [3] -0.008 | [8] -0.011 | [4] -0.004 | [5] 0.023 | IRAK-1-4 Inhibitor I 0.005

SOCS2 (UniProt O14508)
inactive: erlotinib 0.018 | [6] 0.015 | [1] 0.008 | [7] 0 | [2] 0.005 | [3] -0.005 | [8] -0.001 | [4] -0.024 | [5] 0.023 | IRAK-1-4 Inhibitor I -0.005

SMIM13 (UniProt P0DJ93)
inactive: erlotinib -0.014 | [1] 0.057

SMYD5 (UniProt Q6GMV2)
inactive: erlotinib 0.022 | [6] -0.109 | [1] 0.037 | [7] 0.042 | [2] 0.014 | [3] -0.037 | [8] -0.005 | [4] 0.011 | [5] 0.091 | IRAK-1-4 Inhibitor I 0.014

SMS (UniProt P52788)
inactive: erlotinib -0.003 | [6] 0.043 | [1] 0.004 | [7] 0.003 | [2] 0.02 | [3] 0.01 | [8] 0.054 | [4] 0.016 | [5] -0.008 | IRAK-1-4 Inhibitor I -0.036
